Measurements reported in publication PMC7819943, “Rice protein-binding microarrays: a tool to detect cis-acting elements near promoter regions in rice”.
The other results are listed elsewhere or left out.

Protein sequences, listed by entry. Tags and fused reporters are not part of them.
UniProt Q0JBA9, entry or part of it: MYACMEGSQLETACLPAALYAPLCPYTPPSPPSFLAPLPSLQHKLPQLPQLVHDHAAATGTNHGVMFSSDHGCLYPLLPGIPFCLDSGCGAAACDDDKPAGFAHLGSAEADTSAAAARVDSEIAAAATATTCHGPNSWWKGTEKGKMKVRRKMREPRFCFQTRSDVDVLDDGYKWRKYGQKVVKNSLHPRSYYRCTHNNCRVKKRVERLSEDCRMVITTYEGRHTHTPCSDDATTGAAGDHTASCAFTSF

Target: OsWRKY34 (Oryza sativa, UniProt Q0JBA9 1-250)
Assay: protein-binding microarray (RPBM); PBS, 2% BSA, 51.3 ng/ul salmon testes DNA, 50 uM zinc acetate, 200 nM TF, 25 C, 1 h; high values mean tight binding
Conditions: protein: recombinant; tags: N-terminal polyhistidine and DsRed monomer fusion (pET32a); label: CyDye5-dUTP incorporated in the synthesized complementary strand; 3' TTTTT single-stranded linker to array surface; dsDNA, one strand shown
Method in brief: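 In PBS with 2% BSA, salmon testes DNA and 50 µM zinc acetate, 200 nM protein was incubated on a custom Agilent array at 25 °C for 1 h and then washed off. The array had been made double-stranded by primer extension with Cy5-dUTP and blocked with 2% BSA. The proteins were transcription factors fused N-terminally to polyhistidine and DsRed, expressed in E. coli BL21-CodonPlus and purified on Ni–NTA. The binding signal is per-feature fluorescence intensity (arbitrary units) from an Axon 4000B scanner.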

Sequence | binding signal
GGCTTATGGAGTTTGATCTCGTTAAATTTTTATACTTTTCCGGAGTCACCTAGTGCAG | 8660 fluorescence intensity (a.u.)
CTTTAGTTTTCACTTTTTGATTTTCTGCACACGCTTCCCACGGAGTCACCTAGTGCAG | 8920 fluorescence intensity (a.u.)
GTTGTTGCTTCTTGTGATAGCCTTGGAGCTCTTCGTACTACGGAGTCACCTAGTGCAG | 8070 fluorescence intensity (a.u.)
TTTCTTTCTTTCTTTCTTTCGATTTCTTCTTCTTGCTTTACGGAGTCACCTAGTGCAG | 11200 fluorescence intensity (a.u.)
CGTACTTTTTCCTTATTCTTAAGCTACCACTCCCTCGTTTCGGAGTCACCTAGTGCAG | 12400 fluorescence intensity (a.u.)
AAACACACCCCTTCAATTCCTGCATTTTTTCTAATTTCTTCGGAGTCACCTAGTGCAG | 10200 fluorescence intensity (a.u.)
CATGCAATTTTTTAGGGAATTAGGGATGTGCCGTGTCCAACGGAGTCACCTAGTGCAG | 9080 fluorescence intensity (a.u.)
ACTTTCAACTTTTCCGTCAAATCGTTTCAATTTCAACCAACGGAGTCACCTAGTGCAG | 8190 fluorescence intensity (a.u.)
TTCGTGGACCTTTTAGAGTGTTAACCACTCGGATTCCTTTCGGAGTCACCTAGTGCAG | 10400 fluorescence intensity (a.u.)
AAAACCCTGTTCAGCCCCACCGTTTAGCCTTTACATTACCCGGAGTCACCTAGTGCAG | 8740 fluorescence intensity (a.u.)
CGTTTCTTGGCTGGTTTTCTTGGGCGGCGATCGATCGATGCGGAGTCACCTAGTGCAG | 8140 fluorescence intensity (a.u.)
GCACCTACGACTCCTCCATCATGTCATGTCATTTATTCATCGGAGTCACCTAGTGCAG | 8120 fluorescence intensity (a.u.)
CCGGCGGCCATCCACCACACGGCTCCGGCTGCGGCTGCGCCGGAGTCACCTAGTGCAG | 8470 fluorescence intensity (a.u.)
CAACCCCAACCCCAACCCCGGTCAATCCAAACCCAACTATCGGAGTCACCTAGTGCAG | 9460 fluorescence intensity (a.u.)
CTTCATATATACCCCTGGCACGCACTTACACACACATTCGCGGAGTCACCTAGTGCAG | 9730 fluorescence intensity (a.u.)
ATCGATCGGCCGCACCGTTGTGCTTTTGTCCCTGATATACCGGAGTCACCTAGTGCAG | 10300 fluorescence intensity (a.u.)
CAACCCGATCGACGTCCCACCGGTCGTCCCTGCTGGCAATCGGAGTCACCTAGTGCAG | 8720 fluorescence intensity (a.u.)
TGTGGCTCTCGGAAGAAGTTGCTGCAGTCCGTGTTGTTCCCGGAGTCACCTAGTGCAG | 8420 fluorescence intensity (a.u.)
ACAACCGACCAGCAACGCCACTCTCACCATTACCATATATCGGAGTCACCTAGTGCAG | 9880 fluorescence intensity (a.u.)
CACCTTTCTGTGCTCCCAAAACCATCCGCAACAACTCGTACGGAGTCACCTAGTGCAG | 8300 fluorescence intensity (a.u.)
TGTGTTACTGTTTCTGCCTGCTGCCCTCGATCCGACGCTACGGAGTCACCTAGTGCAG | 8420 fluorescence intensity (a.u.)

Sequence | binding signal
ATCTTTCAACCTGGCGCAATTGCCATTTTTCTCAAAGTTACGGAGTCACCTAGTGCAG | 10600 fluorescence intensity (a.u.)
TACTGCCTGTACATCCCGTGCTTCTCCGGCTCTCCGCTCTCGGAGTCACCTAGTGCAG | 10200 fluorescence intensity (a.u.)
AGTTGCGTCCCAATCTCATAAATTATTATCTCGTTTCTTTCGGAGTCACCTAGTGCAG | 8940 fluorescence intensity (a.u.)
GCACCGATGTCCCGGTCCCGCCGATATCACCGAGAAAAAACGGAGTCACCTAGTGCAG | 8270 fluorescence intensity (a.u.)
AGAATCAGCTTGGCACCGTACCAAATCCCCAATGAGTAGCCGGAGTCACCTAGTGCAG | 8940 fluorescence intensity (a.u.)
TGTTTTGTCATTAGTCTATGTTTAATACTTTAAATGTGTACGGAGTCACCTAGTGCAG | 8320 fluorescence intensity (a.u.)
GCGCGTCGCGTCGCACTTCACACCGTACCGTCTCATGCTACGGAGTCACCTAGTGCAG | 9780 fluorescence intensity (a.u.)
GGCCCAGAGTGCCACATTTTTTTGGGCCCATATCATCGCTCGGAGTCACCTAGTGCAG | 8660 fluorescence intensity (a.u.)
CCACCTAGTGATATGTGTGGTTGCTGGATTTCATACTCCCCGGAGTCACCTAGTGCAG | 8030 fluorescence intensity (a.u.)
CATACATGTTAATTTGTTTCTCATGTTGTTCTTTCAGGTCCGGAGTCACCTAGTGCAG | 12300 fluorescence intensity (a.u.)
CGAACCATATCCGGGTTTATTTTTCTTTTTTTCAATTTTTCGGAGTCACCTAGTGCAG | 8100 fluorescence intensity (a.u.)
TCTATTTTTTTTCTCCATGTTACCTTCTGCTAATATATTTCGGAGTCACCTAGTGCAG | 10600 fluorescence intensity (a.u.)
CTGGTTTCCGTGTCCAATTTTAACTGTCCGTCTTATATAACGGAGTCACCTAGTGCAG | 14300 fluorescence intensity (a.u.)
TCTCCTCACCGGCCCCTCTTCCCCTTCGATTCTGGCGGCTCGGAGTCACCTAGTGCAG | 8880 fluorescence intensity (a.u.)
CTCCTCCTCTTTCGCCGCGATTTCTTTAGGATTTTTTTTCCGGAGTCACCTAGTGCAG | 9240 fluorescence intensity (a.u.)
TTAGTTCTTCCTCATCAACATCGTCAGGGATGTTGTAGCTCGGAGTCACCTAGTGCAG | 8060 fluorescence intensity (a.u.)
CGTCATGGTATACTGTCAGTTGTGGTATCTTCATTCCGACCGGAGTCACCTAGTGCAG | 10200 fluorescence intensity (a.u.)
GGCTTATGGCGCAGGTCCGATCTAGAGCATCACTTCACACCGGAGTCACCTAGTGCAG | 8080 fluorescence intensity (a.u.)
TTCTATCATGTTCTTGTATTTTTCCTATCTCTACGATTTTCGGAGTCACCTAGTGCAG | 10500 fluorescence intensity (a.u.)
ACAACGTCCAAGGTATCGCCATTGCTCTCCGAAGTCCGAACGGAGTCACCTAGTGCAG | 8980 fluorescence intensity (a.u.)
GCTTTCTCTCAACTCCAAACTTTGACATTCTCGTTTTCCGCGGAGTCACCTAGTGCAG | 10700 fluorescence intensity (a.u.)

Rewritten as comma-separated lines: part of the list above
Sequence,binding signal
TACTGCCTGTACATCCCGTGCTTCTCCGGCTCTCCGCTCTCGGAGTCACCTAGTGCAG,10200 fluorescence intensity (a.u.)
ACAACGTCCAAGGTATCGCCATTGCTCTCCGAAGTCCGAACGGAGTCACCTAGTGCAG,8980 fluorescence intensity (a.u.)
GCTTTCTCTCAACTCCAAACTTTGACATTCTCGTTTTCCGCGGAGTCACCTAGTGCAG,10700 fluorescence intensity (a.u.)
